Measurements published in patent US20050203029A1, “Agents for treating <I>flaviviridae</I>infections” (priority 2002, published 2005).
Some of these results come from one statement about several compounds together. Peptide text beside a SMILES is read from it. * marks the point of attachment. Cbz = O=C(OCc1ccccc1)*

Columns and labels:
West Nile virus = West Nile virus infection of BHK-21 cells (end point titration, RNase protection, immunofluorescence); assay type: cell-based, West Nile flavivirus; conditions: 10 nM PI after infection, 12 hours
BVDV CP7 = BVDV CP7 infection of MDBK cells (end point titration, RNase protection, immunofluorescence); assay type: cell-based, bovine viral diarrhea virus; conditions: 10 nM PI after infection, 30 hours

SMILES: CC(C)C[C@@H](C=O)NC(=O)[C@H](CC(C)C)NC(=O)[C@H](CC(C)C)NC(=O)OCc1ccccc1 [MG132, N-carbobenzoxy-L-leucinyl-L-leucinyl-L-leucinal] (Cbz-Leu-Leu-Leu-aldehyde)
- reduction in the rate of RNA replication (factor) (West Nile virus): 5-10
- reduction in the rate of RNA replication (factor) (BVDV CP7): 5-10
